Drawing on publication PMC11729874, “How J-chain ensures the assembly of immunoglobulin IgM pentamers” (The EMBO Journal, 2024), this text covers binding for 4 molecules.

Positions count from the first letter of the chain named. Numbers in names are those of the source. No constants are given. Whether binding was seen depends on the method and setting. Some binding calls cover weakened binding; strength is not graded here. For some of these results: Sequences can lack the tags named with a protein.

For assay [1], the target named is murine Joining Chain wild type, recombinant (mouse) (UniProt P01592). Kind of assay: SEC; analytical SE-HPLC, Superdex 200 Increase 10/300, PBS pH 7.4, 25 °C; 1 mg/mL Cµ4tp (DTT removed) and/or 0.5 mg/mL J chain (if not stated otherwise) incubated 24 h at room temperature; both purified. A general note: SEC sorts molecules by how far they enter the pores of the column.

Assay [2] concerns the target T1, J-chain (JC), expressed in transfected cells (UniProt P01592).
T1 sequence: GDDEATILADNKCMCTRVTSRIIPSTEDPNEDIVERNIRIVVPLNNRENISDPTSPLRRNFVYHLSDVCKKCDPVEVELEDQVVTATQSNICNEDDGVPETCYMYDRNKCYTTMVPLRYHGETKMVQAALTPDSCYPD
Briefly: nonreducing SDS-PAGE and western blot of covalent assemblies; HeLa-ERp44KO transfected with JC variants, H-Cµ234tp and/or H-ERp44 variants; RIPA lysates with 10 mM NEM and supernatants; Halo ligands, anti-JC, anti-ERp44, anti-µ.

B1: murine Joining Chain wild type, recombinant (natural protein, mouse)
chain: MGDDEATILADNKCMCTRVTSRIIPSTEDPNEDIVERNIRIVVPLNNRENISDPTSPLRRNFVYHLSDVCKKCDPVEVELEDQVVTATQSNICNEDDGVPETCYMYDRNKCYTTMVPLRYHGETKMVQAALTPDSCYPD
notes: methionine added at position 1; murine joining chain (J chain), G22-D159 of the precursor; Heterogeneous native and non-native disulfides; largely unstructured by CD; also called JC; J chain
Take B1: the binding result in assay [1] was “binds”.

B2: J-chain (JC), expressed in transfected cells (protein, UniProt P01592 22-159)
chain: T1 sequence
For the molecule B2, the binding result in assay [2] was “binds”.

B3: wild-type Halo tagged ERp44 (H-ERp44) (protein, UniProt Q9BS26 30-406)
chain: EITSLDTENIDEILNNADVALVNFYADWCRFSQMLHPIFEEASDVIKEEFPNENQVVFARVDCDQHSDIAQRYRISKYPTLKLFRNGMMMKREYRGQRSVKALADYIRQQKSDPIQEIRDLAEITTLDRSKRNIIGYFEQKDSDNYRVFERVANILHDDCAFLSAFGDVSKPERYSGDNIIYKPPGHSAPDMVYLGAMTNFDVTYNWIQDKCVPLVREITFENGEELTEEGLPFLILFHMKEDTESLEIFQNEVARQLISEKGTINFLHADCDKFRHPLLHIQKTPADCPVIAIDSFRHMYVFGDFKDVLIPGKLKQFVFDLHSGKLHREFHHGPDPTDTAPGEQAQDVASSPPESSFQKLAPSEYRYTLLRDRDEL
On to B3, for which, in assay [2], the binding entry was “binds”.

B4: H-ERp44 C29S (protein, UniProt Q9BS26 30-406)
chain: B3 chain with C29S
On to B4, for which the binding entry in assay [2] is given as “no binding”.
